{
  "sequences": {"note": "Sequences of proteins named here, by UniProt entry; tags and fusion partners are left off. Residues count along the entry.", "UniProt P30530, 26-894": "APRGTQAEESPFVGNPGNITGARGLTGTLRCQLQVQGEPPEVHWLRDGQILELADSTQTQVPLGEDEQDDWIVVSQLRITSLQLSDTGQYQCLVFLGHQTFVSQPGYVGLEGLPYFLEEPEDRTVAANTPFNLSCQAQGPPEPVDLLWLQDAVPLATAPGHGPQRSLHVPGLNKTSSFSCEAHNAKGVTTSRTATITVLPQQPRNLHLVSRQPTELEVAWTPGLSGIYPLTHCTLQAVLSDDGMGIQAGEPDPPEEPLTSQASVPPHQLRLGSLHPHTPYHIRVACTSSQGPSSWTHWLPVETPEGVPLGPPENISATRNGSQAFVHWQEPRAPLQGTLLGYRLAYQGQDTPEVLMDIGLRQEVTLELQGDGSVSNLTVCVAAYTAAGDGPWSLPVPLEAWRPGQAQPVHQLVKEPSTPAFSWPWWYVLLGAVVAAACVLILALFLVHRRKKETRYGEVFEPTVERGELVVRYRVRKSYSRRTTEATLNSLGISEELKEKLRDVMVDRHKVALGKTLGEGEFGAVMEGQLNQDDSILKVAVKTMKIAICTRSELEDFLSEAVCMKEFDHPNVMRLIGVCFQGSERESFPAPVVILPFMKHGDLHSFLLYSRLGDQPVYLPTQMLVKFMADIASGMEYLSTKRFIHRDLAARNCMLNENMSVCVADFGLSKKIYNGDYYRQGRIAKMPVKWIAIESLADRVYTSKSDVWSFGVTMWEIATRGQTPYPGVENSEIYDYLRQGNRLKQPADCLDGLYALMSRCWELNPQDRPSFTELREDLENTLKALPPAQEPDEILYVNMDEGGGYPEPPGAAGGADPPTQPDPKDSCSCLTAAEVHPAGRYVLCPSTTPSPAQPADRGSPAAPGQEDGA"},
  "source": "patent US20220380766",
  "target": "AXL receptor tyrosine kinase (UniProt P30530)",
  "test": "activity in cells",
  "conditions": "2'-F pyrimidines, protein in cells, protein details: endogenous AXL in human ovarian cancer cell lines, dose not given here",
  "note": "For at least one entry, the source does not settle the construct or the ends of the probe. A weaker result is weaker than the reference pair of the same experiment.",
  "data": [
    {"sequence": "ATGATCAATCGCCTCAATTCGACAGGAGGCTCAC [GLB-A04 PEG]", "values": [
      {"measurement": "functional effect of the aptamer", "setting": "phosphorodithioate (PS2) at position 4, PEG, reduces p-AXL in SKOV3.ip1 tumor tissue in mice, alone or with paclitaxel, single-stranded DNA, variant of GLB-A04", "result": "active"}
    ]},
    {"sequence": "ATGATCAATCGCCTCAATTCGACAGGAGGCTCAC [GLB-G25 PEG]", "values": [
      {"measurement": "functional effect of the aptamer", "setting": "phosphorodithioate (PS2) at position 25, PEG, reduces p-AXL in SKOV3.ip1 tumor tissue in mice, alone or with paclitaxel, single-stranded DNA, variant of GLB-G25", "result": "active"}
    ]},
    {"sequence": "ATGATCAATCGCCTCAATTCGACGGAGGCTCAC [GLD-1]", "values": [
      {"measurement": "functional effect of the aptamer", "setting": "monothiophosphate, less p-AXL reduction than GLB-G25 and GLB-A04 in SKOV3.ip1 with Gas6, single-stranded DNA, variant of GL21.T", "result": "less active"}
    ]},
    {"sequence": "AUGAUCAAUCGCCUCAAUUCGACGGAGGCUCAC [GL21.T]", "values": [
      {"measurement": "functional effect of the aptamer", "setting": "less p-AXL reduction than GLB-G25 and GLB-A04 in SKOV3.ip1 with Gas6", "result": "less active"}
    ]}
  ]
}
